Laboratory results: PubChem BioAssay AID1259254 (NCATS, 2017)
Screen: 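Gene knock-downs that lead to re-replication, shown by excess G2 DNA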 (primary screen). Cells: human HCT116 colorectal cancer cells. Knock-down reagent: single siRNA against human genes. Time to read-out: 3 days. Measured: 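Nuclei stained with Hoechst and imaged; cell-cycle phase assigned by DNA content; G2 share scaled per plate, non-targeting siRNA 0%, GMNN siRNA 100%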. Reading the numbers: G2 robust z-score and G2 cells, % of GMNN control: higher = more G2 cells, more excess DNA replication; raw share of cells in G2: higher = larger share of cells with G2 DNA content. Call rule: 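Active siRNAs have a G2 robust z of 5 or more median absolute deviations over the median, which in these data means about 38% or higher of GMNN control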.
Shown is one part, drawn at random, of about 59,000 reagents. In the full data, about 1,550 (2.6%) were called active. 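G2 share is only a proxy for re-replication; each gene was hit by three separate siRNAs, and active genes were retested.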 Raw values are not corrected between plates. The numbers tell different reagents against one gene apart. The record does not give: the amount of reagent.

no.	target gene	reagent	G2 robust z-score	G2 cells, % of GMNN control	raw share of cells in G2 (%)	Call
1	UTP3	1	0.232	4.6	6.25	inactive
2	UTP3	2	2.88	23.2	16.6	inactive
3	UTP3	3	2.21	18.5	11.1	inactive
4	LOC645263 (retired record)	1	0.272	4.88	5.5	inactive
5	LOC645263 (retired record)	2	-0.113	2.17	4.05	inactive
6	LOC645263 (retired record)	3	-0.0745	2.44	3.86	inactive
7	PFN1	1	-0.562	-0.99	4.55	inactive
8	PFN1	2	2.04	17.3	11.1	inactive
9	PFN1	3	1.48	13.4	8.19	inactive
10	HOXD9	1	-1.17	-5.29	3.12	inactive
11	HOXD9	2	-0.294	0.901	4.53	inactive
12	HOXD9	3	-0.612	-1.34	5.18	inactive
13	MLH3	1	-0.931	-3.58	4.54	inactive
14	MLH3	2	-0.587	-1.16	3.8	inactive
15	MLH3	3	-0.631	-1.47	3.51	inactive
16	NR4A2	1	1.62	14.3	10.5	inactive
17	NR4A2	2	-0.522	-0.702	4.31	inactive
18	NR4A2	3	-0.116	2.15	4.67	inactive
19	PDX1	1	-0.107	2.21	3.91	inactive
20	PDX1	2	-0.502	-0.566	3.24	inactive
21	PDX1	3	1.23	11.6	10.3	inactive
22	SEC11B	1	-0.355	0.473	5.8	inactive
23	SEC11B	2	6.69	50	20.9	active
24	SEC11B	3	-0.787	-2.57	3.31	inactive
25	PAPOLA-DT	1	1	10	7.59	inactive
26	PAPOLA-DT	2	-0.633	-1.48	2.89	inactive
27	PAPOLA-DT	3	-0.47	-0.341	3.37	inactive
28	CBR1	1	0.981	9.87	8.59	inactive
29	CBR1	2	3.52	27.8	14.3	inactive
30	CBR1	3	-0.546	-0.876	4.42	inactive
31	SPACA5B	1	1.45	13.2	8.24	inactive
32	SPACA5B	2	-0.123	2.1	4.73	inactive
33	SPACA5B	3	1.08	10.6	6.73	inactive
34	GAS6	1	-0.996	-4.04	2.22	inactive
35	GAS6	2	-0.0957	2.29	6.07	inactive
36	GAS6	3	0.432	6.01	7.55	inactive
37	NAA50	1	0.34	5.36	6.77	inactive
38	NAA50	2	0.681	7.76	8.66	inactive
39	NAA50	3	1.91	16.4	10.1	inactive
40	EME1	1	0.663	7.64	6.39	inactive
41	EME1	2	1.89	16.2	7.93	inactive
42	EME1	3	-0.227	1.37	3.55	inactive
43	DCTPP1	1	-0.81	-2.73	3.39	inactive
44	DCTPP1	2	-0.965	-3.82	2.9	inactive
45	DCTPP1	3	0.181	4.24	3.82	inactive

Reformatted: results already given.
target gene | reagent | G2 robust z-score | G2 cells, % of GMNN control | raw share of cells in G2 (%) | Call
PFN1 | 1 | -0.562 | -0.99 | 4.55 | inactive
PFN1 | 2 | 2.04 | 17.3 | 11.1 | inactive
PFN1 | 3 | 1.48 | 13.4 | 8.19 | inactive
HOXD9 | 1 | -1.17 | -5.29 | 3.12 | inactive
HOXD9 | 2 | -0.294 | 0.901 | 4.53 | inactive
HOXD9 | 3 | -0.612 | -1.34 | 5.18 | inactive
MLH3 | 1 | -0.931 | -3.58 | 4.54 | inactive
MLH3 | 2 | -0.587 | -1.16 | 3.8 | inactive
MLH3 | 3 | -0.631 | -1.47 | 3.51 | inactive

More results follow.
no.	target gene	reagent	G2 robust z-score	G2 cells, % of GMNN control	raw share of cells in G2 (%)	Call
46	APOC2	1	-1.32	-6.35	2.56	inactive
47	APOC2	2	0.0573	3.37	5.25	inactive
48	APOC2	3	-0.922	-3.52	3.82	inactive
49	ADGRB1	1	5.86	44.2	21.6	active
50	ADGRB1	2	2.26	18.9	11.1	inactive
51	ADGRB1	3	4.29	33.1	13.4	inactive
52	DCC	1	1.55	13.8	9.9	inactive
53	DCC	2	-1.12	-4.94	3.19	inactive
54	DCC	3	3.58	28.2	13.8	inactive
55	ELMOD2	1	-1.31	-6.27	1.31	inactive
56	ELMOD2	2	-0.721	-2.11	2.41	inactive
57	ELMOD2	3	2.87	23.2	10.6	inactive
58	SLC16A14	1	0.856	8.99	10.2	inactive
59	SLC16A14	2	-0.506	-0.589	4.49	inactive
60	SLC16A14	3	0.0249	3.14	6.02	inactive
61	DLGAP1	1	-0.168	1.78	5.35	inactive
62	DLGAP1	2	3.84	30	15.8	inactive
63	DLGAP1	3	0.0099	3.04	5.92	inactive
64	DLGAP1	4	-0.556	-0.946	3.45	inactive
65	DLGAP1	5	-0.571	-1.05	2.95	inactive
66	DLGAP1	6	-0.982	-3.94	2.94	inactive
67	GALNT15	1	-0.802	-2.67	4.43	inactive
68	GALNT15	2	3.36	26.6	16.4	inactive
69	GALNT15	3	1.26	11.8	8.94	inactive
